Laboratory results taken from patent publication US7135457B1, “Random peptides that bind to gastro-intestinal tract (GIT) transport receptors and related methods” (Cytogen Corporation, priority 1997, dated 2006).
Square brackets hold non-standard residues; d marks the D form. Peptide text beside a SMILES is read from it. * marks the point of attachment. Dansyl = CN(C)c1cccc2c(S(=O)(=O)*)cccc12

test system: P100 fractions harvested from Caco-2 cells; assay: Binding of dansylated peptides to P100 fractions and peptide/particle correlation; design: key: + positive; +/− equivocal; − negative; conditions: Table 26
Procedure: Binding of peptide and/or peptide-coated PLGA particles to membrane (P100) and cytosolic (S100) fractions was assessed by detection of the dansyl moiety incorporated in the peptide. Costar ninety six well ELISA plates were coated with S100 and P100 fractions (100 μg/ml in 0.05 M NaHCO3) overnight at 4° C. The plates were blocked with 0.5% bovine serum albumin in DPBS for 1 h at room temperature and washed 3 times in 1% BSA-DPBS. Peptide-coated particles or peptides were dispersed in the same buffer and added to the plates at concentrations in the range 0.0325-0.5 mg/well. […] The plates were incubated for 1 h at room temperature. The wells were washed 3 times in 1% BSA-DPBS and 100 μl of goat anti-mouse IgGλ:HRP antibody (Southern Biotechnology 1060-05; 1:10,000) was added per well. The plates were incubated for 1 h at room temperature. After washing 3 times in 1% BSA-DPBS 100 μl of TMB substrate (3,3′,5′,5-tetramethylbenzidine; Microwell Peroxidase Substrate System (Kirkegaard and Perry Laboratories 50-76-00)) was added and the optical density was measured at 650 nm at various time intervals.
Binding of dansylated peptides to P100 fractions was assessed to determine if peptide binding was predictive of peptide-coated particle binding.

Compound | Assay correlation (peptide/particle)
C[C@@H](O)[C@H](NC(=O)[C@@H](N)CCCCNS(=O)(=O)c1cccc2c(N(C)C)cccc12)C(=O)N[C@H](CCCNC(=N)N)C(=O)N[C@@H](CCCCN)C(=O)N[C@@H](CO)C(=O)N[C@@H](CO)C(=O)N[C@H](CCCNC(=N)N)C(=O)N[C@@H](CO)C(=O)N[C@@H](CC(N)=O)C(=O)N1CCC[C@H]1C(=O)N[C@H](CCCNC(=N)N)C(=O)NCC(=O)N[C@H](CCCNC(=N)N)C(=O)N[C@H](CCCNC(=N)N)C(=O)N[C@@H](Cc1c[nH]cn1)C(=O)N1CCC[C@H]1C(=O)NCC(N)=O [ZElan053, H2N-K(dns)TrKSSrSNPrGrrHPG-CONH2] (H-K(Dansyl)T[dR]KSS[dR]SNP[dR]G[dR][dR]HPG-NH2) | −
SDHALGTNLRSDNAKEPGDYNCCGNGNSTGRKVFNRRRPSAIPT [HAX42] | +
STPPSREAYSRPYSVDSDSDTNAKHSSHNRRLRTRSRPN [PAX2] | +/−
